Assay results: PubChem BioAssay AID2547 (National Center for Advancing Translational Sciences (NCATS), 2010)
The shares of active, inactive and inconclusive entries below differ from those in the screen. Potencies beside an inconclusive call are fits to weak or partial responses and may not hold up. Calls of active or inactive are those of the source. The call rests on the fitted dose curve; in most records, active means well fitted inhibition curve with a large enough effect; inconclusive means small, poorly fitted or top-dose-only effect; inactive means flat fitted curve, though single readings scatter.
Potency means the concentration at half of the fitted maximal effect.

Assay: Secondary Assay for Inhibitors of Human Galactokinase (GALK): HEK-293 Cell Viability Assay
Conditions: HEK-293 viability, ATP luminescence (CellTiter-Glo), 24/48 h; series mostly up to 46.1 µM
Procedure: NIH Molecular Libraries Probe Production Centers Network [MLPCN] NIH Chemical Genomics Center [NCGC] MLPCN Grant: R03 MH085689-01 Assay Submitter (PI): Kent Lai (University of Utah School of Medicine, 50 N Mario Capecchi Drive, Salt Lake City, UT 84132) NCGC Assay Overview Cytotoxicity of the active compounds in the GALK qHTS screen (AID 1868) was assessed using the CellTiter-Glo Luminescent Cell Viability Assay kit (Promega, USA) in the HEK-293 (ATCC) cell line. CellTiter-Glo measures the intracellular ATP present in metabolically active cells using Ultra-Glo as the luciferase to detect ATP levels. In brief, the luciferase in the buffer catalyzes the oxidation of luciferin to oxyluciferin and light which is dependent on ATP. […] Wells treated with various concentrations of cycloheximide (Sigma) and DMSO, and wells with media alone were used as positive and negative controls, respectively. […] [1] http://www.promega.com/tbs/tb288/tb288.pdf
NCGC Assay Protocol Summary: HEK-293 cells were grown in a flask up to 80% confluence. Cells were trypsinized, washed, and resuspended in MEM Eagle + 10% FBS + 1% pen-strep media at a concentration of 120 cells/uL. Five uL/well of cell solution was dispensed into a 1536-well assay plates (Greiner, solid white medium-binding plates) with Aurora Discovery BioRAPTR Flying Reagent Dispenser (FRD; Beckton-Dickenson). Cells were pre-incubated at 37 degree Celsius, 5% CO2 for four hours. Compound and control solutions (23nL) were then transferred to the assay plate using the Kalypsys 1536-pin tool. Assay plates were re- incubated at 37 degree Celsius, 5% CO2. After 24 or 48 hours, five uL of CellTiter Glo detection reagent was added. Luminescence signal was read with Perkin Elmer ViewLux plate reader after 30 min room temperature incubation.
For `COC(=O)c1ccccc1NC1=C/C(=N\S(=O)(=O)c2ccc(C(=O)O)cc2)c2ccccc2C1=O`, the Potency was inconclusive: 28.1 µM [falling, single point].
For `CC1(C)CC(=O)C2=C(C1)NC(Nc1nc3ccccc3o1)=NC2c1cccc(O)c1` (stereo not given), the Potency was inconclusive: 26.6 µM [falling, single point].
With `Cc1c(C(=O)N2CCCC2)sc(NC(=O)c2ccc(Cl)cc2)c1C#N` the Potency was “inactive”.
For `COc1ccc2cc(C(N)=O)c(=Nc3ccc(C)cc3)oc2c1`, the Potency was inconclusive: 25 µM [falling, partial curve, poor fit].
For `N#C/C(=C\c1coc2ccc(O)cc2c1=O)C(=O)Nc1nc2ccccc2s1`, the Potency was inconclusive: 35.3 µM [falling, single point].
With `Cc1ccc(C(=O)NC2(O)C(=O)c3ccccc3C2=O)cc1C` the Potency was “inactive”.
With `N#C/C(=C(/O)Cc1cccc2ccccc12)c1nc2ccccc2s1` the Potency was “inactive”.
For `CC(C)(C)C(=O)Nc1ccc2c(c1)C(=O)C(=O)c1ccccc1-2`, the Potency was active: 5.6 µM.
With `C=CCN1C(=O)/C(=C/c2ccc(OC(C)=O)c(OCC)c2[N+](=O)[O-])SC1=S` the Potency was inconclusive: 31.5 µM [falling, partial curve, poor fit].
For `CC1(C)CC(=O)C2=C(C1)NC(Nc1nc3ccccc3o1)=NC2c1cccc(Cl)c1` (stereo not given), the Potency was inconclusive: 31.5 µM [falling, single point].
For `Cn1nc(-c2ccccn2)nc2c(=O)n(C)c(=O)nc1-2`, the Potency was active: 3.97 µM.
With `Cc1ccc(C(=O)N/C(=C\c2ccc(Cl)cc2)C(=O)NCCN2CCOCC2)cc1` the Potency was “inactive”.
In the case of `O=C1CCCC2=C1[C@@]1(CCC(c3ccccc3)C1)N=C(Nc1nc3ccccc3o1)N2` (stereo not given in full), the Potency is reported as inconclusive: 28.1 µM [falling, single point].
With `O=C(O)c1ccc(NC2=C/C(=N/S(=O)(=O)c3ccccc3)c3ccccc3C2=O)cc1` the Potency was active: 11.2 µM.
With `CCN1CCN(CCNC(=O)c2ccc3nc(-c4cccc(C)c4)c(-c4cccc(C)c4)nc3c2)CC1` the Potency was inconclusive: 25 µM [falling, single point].
With `Cc1noc(C)c1S(=O)(=O)Nc1ccc(C(=O)Nc2ccc(OC(F)(F)F)cc2)cc1` the Potency was inconclusive: 25 µM [falling, single point].
For `O=C(NC1(O)C(=O)c2ccccc2C1=O)c1ccc(C(F)(F)F)cc1`, the Potency was “inactive”.
With `O=C(O)CSc1cc(NS(=O)(=O)c2cccc([N+](=O)[O-])c2)c2ccccc2c1O` the Potency was “inactive”.
In the case of `COc1cc(/C=C2\C(=O)ON=C2c2ccccc2)cc(Br)c1O`, the Potency is reported as “inactive”.
In the case of `CCOC(=O)c1c(C)[nH]c2c1-c1ccccc1C(=O)C2=O`, the Potency is reported as active: 11.2 µM.
For `O=C1C(Cl)=C(N2CCC(C(=O)O)CC2)C(=O)c2ccccc21`, the Potency was “inactive”.
With `CC1CCC2(C1)N=C(Nc1nc3ccccc3o1)NC1=C2C(=O)CCC1` (stereo not given) the Potency was inconclusive: 28.1 µM [falling, single point].
For `CCOC(=O)/C=C(\C)Sc1cc(O)c2ccccc2c1O`, the Potency was inconclusive: 25 µM [falling, single point].
In the case of `O=C1/C(=C\c2cc(Cl)c(O)c(Cl)c2)SC(=S)N1Cc1ccccc1`, the Potency is reported as inconclusive: 28.1 µM [falling, single point].
With `O=C1C(SCCO)=C(SCCO)C(=O)c2ccccc21` the Potency was inconclusive: 35.3 µM [falling, single point].
In the case of `COCc1cc(CN2CCCC2)c(O)c2ncccc12`, the Potency is reported as inconclusive: 28.1 µM [falling, single point].
In the case of `Cc1ccc(C)c(CN2C(=O)CSc3ccc(C(=O)NCCN4CCOCC4)cc32)c1`, the Potency is reported as “inactive”.
For `O=C1C=C(NCc2ccccc2)c2ccccc2C1=O`, the Potency was inconclusive: 31.5 µM [falling, single point].
For `NC(=O)C1CCN(C2=C(Cl)C(=O)c3ccccc3C2=O)CC1`, the Potency was inconclusive: 25 µM [falling, single point].
With `Cc1ccc(C2N=C(Nc3nc4ccccc4o3)NC3=C2C(=O)CC(C)(C)C3)cc1` (stereo not given) the Potency was “inactive”.
